# Assay results reported in PubChem BioAssay AID624173 (National Center for Advancing Translational Sciences (NCATS), 2012).
# In all, about 410,000 compounds went through this assay and about 490 (0.12%) were called active. All entries are inconclusive by the source's own rule. Clear calls are listed elsewhere. The call rests on the fitted dose curve; in most records, active means well fitted inhibition curve with a large enough effect; inconclusive means small, poorly fitted or top-dose-only effect; inactive means flat fitted curve, though single readings scatter.
# Biological target: pyruvate kinase (Trypanosoma brucei) (UniProt Q57TT1)
# Assay: qHTS of Trypanosoma Brucei Inhibitors; further: nearly all actives have a fitted effect of over 50% in size
# Conditions: TbPYK enzyme, Kinase-Glo Plus ATP luminescence, 45 min
# Potency means the concentration at half of the fitted maximal effect.
row,Compound,Potency
1,COc1ccc(OP(C)(=O)Nc2cccc(Br)c2)cc1 (configuration not stated),inconclusive: 50.1 µM
2,COc1ccc(NP(C)(=O)Oc2ccccc2OC)cc1 (configuration not stated),inconclusive: 50.1 µM
